The target in assay [1] is T1, PfDOZI::GFP (P. falciparum (endogenous in 3D7 parasites)) (UniProt O97285).
T1 sequence: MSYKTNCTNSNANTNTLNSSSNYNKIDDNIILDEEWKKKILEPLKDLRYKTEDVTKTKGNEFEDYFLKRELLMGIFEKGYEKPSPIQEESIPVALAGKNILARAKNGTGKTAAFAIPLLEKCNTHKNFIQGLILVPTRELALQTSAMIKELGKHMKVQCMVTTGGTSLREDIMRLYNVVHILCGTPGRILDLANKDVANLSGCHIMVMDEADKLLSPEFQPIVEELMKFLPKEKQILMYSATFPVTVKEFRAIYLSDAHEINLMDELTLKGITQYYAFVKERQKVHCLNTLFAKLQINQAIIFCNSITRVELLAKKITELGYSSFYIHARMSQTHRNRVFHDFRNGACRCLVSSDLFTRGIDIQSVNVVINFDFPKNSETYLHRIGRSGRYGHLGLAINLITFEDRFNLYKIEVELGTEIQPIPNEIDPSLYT
Kind of assay: affinity purification with mass spectrometry; GFP-Trap beads with lysate of PfDOZI::GFP schizonts under normal culture, native conditions; lysis and wash buffer 300 mM NaCl, 20 mM HEPES pH 7.9, 2 mM MgCl2, 0.2 mM EDTA, 0.1% NP40, 0.5 mM DTT; 4 °C, 2 h; agarose beads as control; LC-MS/MS in triplicate, SAINT, FDR 1%.

Sequences of proteins named here, by UniProt entry; tags and fusion partners are left off. A change or cut given only in a name is not applied to a line headed by its entry.
UniProt Q8IAX8: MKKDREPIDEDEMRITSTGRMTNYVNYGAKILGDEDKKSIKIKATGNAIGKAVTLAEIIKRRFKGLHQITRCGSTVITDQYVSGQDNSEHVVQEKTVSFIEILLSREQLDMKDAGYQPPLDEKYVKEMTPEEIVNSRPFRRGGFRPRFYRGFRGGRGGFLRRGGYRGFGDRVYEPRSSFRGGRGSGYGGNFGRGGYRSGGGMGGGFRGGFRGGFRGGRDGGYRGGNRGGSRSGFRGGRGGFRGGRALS
UniProt A0A5K1K8Y8: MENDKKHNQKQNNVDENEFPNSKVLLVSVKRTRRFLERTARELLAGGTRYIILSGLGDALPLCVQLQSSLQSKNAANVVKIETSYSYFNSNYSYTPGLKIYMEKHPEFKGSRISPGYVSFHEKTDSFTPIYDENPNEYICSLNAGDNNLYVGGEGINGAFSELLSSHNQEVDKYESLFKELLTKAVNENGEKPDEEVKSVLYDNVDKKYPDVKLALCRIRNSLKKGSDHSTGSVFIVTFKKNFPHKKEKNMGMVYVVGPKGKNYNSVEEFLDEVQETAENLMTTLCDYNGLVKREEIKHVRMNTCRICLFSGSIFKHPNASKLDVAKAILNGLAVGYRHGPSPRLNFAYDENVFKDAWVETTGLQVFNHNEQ
UniProt Q8IJX8: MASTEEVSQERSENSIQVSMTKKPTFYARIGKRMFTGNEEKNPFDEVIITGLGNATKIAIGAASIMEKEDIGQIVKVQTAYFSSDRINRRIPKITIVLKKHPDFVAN
UniProt Q8IJN7: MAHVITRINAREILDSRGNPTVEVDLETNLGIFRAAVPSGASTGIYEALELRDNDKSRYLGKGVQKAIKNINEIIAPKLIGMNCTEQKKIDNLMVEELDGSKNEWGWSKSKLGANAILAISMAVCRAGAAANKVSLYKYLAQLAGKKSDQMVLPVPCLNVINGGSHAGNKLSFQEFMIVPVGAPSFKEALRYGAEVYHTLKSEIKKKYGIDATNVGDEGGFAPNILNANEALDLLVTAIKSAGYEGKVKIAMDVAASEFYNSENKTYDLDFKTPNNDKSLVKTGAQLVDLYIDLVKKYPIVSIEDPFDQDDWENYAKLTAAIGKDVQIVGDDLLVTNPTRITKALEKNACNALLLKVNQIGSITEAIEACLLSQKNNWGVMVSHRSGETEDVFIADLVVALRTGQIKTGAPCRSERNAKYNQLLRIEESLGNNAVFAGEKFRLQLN
UniProt Q8IBH7: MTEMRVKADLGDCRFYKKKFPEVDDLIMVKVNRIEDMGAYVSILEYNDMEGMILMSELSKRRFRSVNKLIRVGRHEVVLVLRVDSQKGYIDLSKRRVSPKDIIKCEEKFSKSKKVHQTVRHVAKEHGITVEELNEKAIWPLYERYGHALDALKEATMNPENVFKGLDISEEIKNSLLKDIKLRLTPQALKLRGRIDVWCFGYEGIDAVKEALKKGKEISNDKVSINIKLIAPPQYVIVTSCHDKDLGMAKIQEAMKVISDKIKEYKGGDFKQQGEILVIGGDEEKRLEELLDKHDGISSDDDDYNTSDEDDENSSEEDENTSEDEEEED
UniProt C0H4T9: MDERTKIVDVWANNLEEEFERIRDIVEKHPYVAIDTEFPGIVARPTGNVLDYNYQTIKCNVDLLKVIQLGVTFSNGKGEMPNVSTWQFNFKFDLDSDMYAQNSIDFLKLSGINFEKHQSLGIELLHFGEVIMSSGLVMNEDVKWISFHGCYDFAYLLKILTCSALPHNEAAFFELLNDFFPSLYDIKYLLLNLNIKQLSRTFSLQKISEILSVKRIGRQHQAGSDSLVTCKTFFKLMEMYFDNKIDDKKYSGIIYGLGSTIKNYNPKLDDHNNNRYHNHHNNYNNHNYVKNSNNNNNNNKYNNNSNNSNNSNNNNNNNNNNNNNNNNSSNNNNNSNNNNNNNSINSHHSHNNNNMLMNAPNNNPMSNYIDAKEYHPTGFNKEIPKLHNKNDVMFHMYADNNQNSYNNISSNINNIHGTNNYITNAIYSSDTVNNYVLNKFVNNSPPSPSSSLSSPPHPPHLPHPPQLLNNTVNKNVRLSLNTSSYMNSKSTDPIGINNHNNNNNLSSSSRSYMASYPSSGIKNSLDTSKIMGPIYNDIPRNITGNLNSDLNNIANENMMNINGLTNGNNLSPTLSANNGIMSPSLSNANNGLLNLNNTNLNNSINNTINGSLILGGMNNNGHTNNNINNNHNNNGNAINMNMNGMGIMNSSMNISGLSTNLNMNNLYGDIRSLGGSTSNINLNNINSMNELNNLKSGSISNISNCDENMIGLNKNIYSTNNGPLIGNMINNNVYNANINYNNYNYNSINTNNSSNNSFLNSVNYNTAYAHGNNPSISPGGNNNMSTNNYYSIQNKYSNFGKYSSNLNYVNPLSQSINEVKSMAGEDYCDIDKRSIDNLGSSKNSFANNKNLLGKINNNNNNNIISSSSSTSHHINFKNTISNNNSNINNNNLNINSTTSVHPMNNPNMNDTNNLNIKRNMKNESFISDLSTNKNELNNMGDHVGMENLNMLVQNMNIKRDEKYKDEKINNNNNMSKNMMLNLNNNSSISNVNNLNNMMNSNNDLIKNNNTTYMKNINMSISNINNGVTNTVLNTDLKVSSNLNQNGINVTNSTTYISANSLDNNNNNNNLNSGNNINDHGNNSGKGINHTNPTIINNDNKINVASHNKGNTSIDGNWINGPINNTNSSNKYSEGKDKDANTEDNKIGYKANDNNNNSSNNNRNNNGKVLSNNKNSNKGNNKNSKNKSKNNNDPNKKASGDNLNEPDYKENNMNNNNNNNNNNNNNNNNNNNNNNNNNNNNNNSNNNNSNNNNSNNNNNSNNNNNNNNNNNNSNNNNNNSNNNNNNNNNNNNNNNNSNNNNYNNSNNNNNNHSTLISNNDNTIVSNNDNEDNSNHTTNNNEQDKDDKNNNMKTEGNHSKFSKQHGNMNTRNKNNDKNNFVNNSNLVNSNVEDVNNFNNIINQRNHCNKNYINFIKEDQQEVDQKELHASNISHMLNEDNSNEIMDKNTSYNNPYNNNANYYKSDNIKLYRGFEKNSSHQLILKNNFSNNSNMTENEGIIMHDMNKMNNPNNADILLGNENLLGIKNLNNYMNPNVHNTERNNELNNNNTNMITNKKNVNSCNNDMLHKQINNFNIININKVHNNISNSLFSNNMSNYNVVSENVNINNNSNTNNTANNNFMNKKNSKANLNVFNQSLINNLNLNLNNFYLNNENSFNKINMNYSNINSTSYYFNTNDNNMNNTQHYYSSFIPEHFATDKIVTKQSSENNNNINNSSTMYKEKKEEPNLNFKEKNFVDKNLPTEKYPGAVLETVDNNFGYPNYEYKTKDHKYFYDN

Assay [2] addresses T1, PfDOZI::GFP (P. falciparum (endogenous in 3D7 parasites)). Kind of assay: affinity purification with mass spectrometry; GFP-Trap beads with lysate of purified PfDOZI::GFP gametocytes (day 5), native conditions; same buffers (300 mM NaCl, 0.1% NP40), 4 °C, 2 h; agarose beads as control; LC-MS/MS in triplicate, SAINT, FDR 1%.
Assay [3] has the same target. Kind of assay: affinity purification with mass spectrometry; GFP-Trap beads with lysate of PfDOZI::GFP schizonts under nutrient starvation (stressed schizonts), native conditions; same buffers (300 mM NaCl, 0.1% NP40), 4 °C, 2 h; agarose beads as control; LC-MS/MS in triplicate, SAINT, FDR 1%.

These are yes or no findings as the source states them, for the method shown. In cells and extracts the contact can be indirect. Here binding means that the protein was enriched with, or labelled near, the bait; the list need not be complete. No binding means not detected with the bait. Tags and fused reporters may be left off the sequences shown.

As to Alba1 (from UniProt Q8IAX8), the binding result in assay [1] and in assay [2] was “binds” throughout.
As for Alba4 (from UniProt A0A5K1K8Y8), the binding entry in assay [1] and in assay [2] was “binds” throughout.
Take LSm12: in assay [1], the binding result is listed as “binds”.
With LSm3, the binding result in assay [1] is recorded as “binds”.
Take Alba3 (from UniProt Q8IJX8): the binding entry in assay [1] and in assay [2] was “binds” throughout.
Turning to PAIP1 (PABP-interacting protein 1), the binding entry in assay [3] is reported as “binds”.
As to LSm7, the binding entry in assay [1] is recorded as “binds”.
Still for that read-out and setting: next, LSm1: “binds”.
As to 6-phosphofructokinase (enzyme), the binding entry in assay [2] was “binds”.
Regarding eIF3M, the binding result in assay [3] is “binds”.
As to LSm2, the binding result in assay [1] is listed as “binds”.
Regarding “enolase (from UniProt Q8IJN7 1-446) (enzyme)”, in assay [2], the binding entry was “binds”.
As to eIF2α (from UniProt Q8IBH7), in assay [3], the binding result is reported as “binds”.
Regarding LSm4, the binding result in assay [1] is on record as “binds”.
The same measure, in the same setting: next, CAF1 (from UniProt C0H4T9 1-1774): “binds”.

B1: DCP1 (protein, UniProt Q8IJ85 1-1190)
chain: MKKRNTLSTSYGRLKGRVSRYDMNSSYNLNEHKNNKNSALEEIKDYKTGETSHDNINGNNINNNKNINNNNKINNNKINSSNNCALVNSSNTINNNLNNINNINNISNTNHSVNNSTYQSCNNKYNKNGFVYDYNTYYTKKSSDLKGKLKNENESMNSDGNNDVTRINSNHSNNIVLNDLNNSMNSLNIPKDNNISHVNNMTPINNMMKGINNRNDSVNTHMYNMKNLKDIRLYNHKEKKNVNEENVNVDQDNEEKNLVETQNENDKRNEKKEEDDDEDVDEAEEKEEEGMKLLREKICFKMLKSIDIYITEIIMKSCFVTVYKMKDDELKWKRADIEGFLYIVKRSIKPYYRLIITNKKNEKHLLQDIDTNMNLSTDQNYIFYRIINEETNVRNIYSLWFYSTEEKEQIYKVLKNIVEKAYQEKVGITQDNTNNVSNMNNICNVNNNRNSILTNIGSMKNGSVTMEEKLEIISEQMRKMSLRPENKESHKIIQNEHIEDNNHNEANIYNNNHNEANIYNNNHNDDNIYNNNHNEANIYNNNHNEANIYNNNHNNDNIYNNNHNNDNIYNNNHIGSSNFLKKSSLETNLISPNLINNSTIINQINNMTSLKNMKYNKMLPLKPDYNVGNDKEHILELIKNKNDIESIKRKIMSAADNTFPDAYLNNYHVGIINNMNNMNNMNNINNVNNINNMSNINNMSNINNMSNINNMSDINNVNSLPSINNNNNNNNQSGNTNIYNPNINVSTKKDEKAGRKLLYLIKGLSMVHDKNTEQNIMLNDELNNNKSPNILNKSYIDNNKNNGSHNEINSKKGGEAIMSLLGLSKNVDTKLEDDKKKNKKKKKNNSMNNSVLSSNNNMIENVDNMIKNNDSIIKNNDSIIKNNDHMIQNNDHMIQNNDHMVDSNNNYYISHNNVDKNVGDIVNLKNAQANLNQNIMYNNICKKKESGIGNVQKYENDLHNNSSFKYSKNLNKYENDDIVTLYNNNNNNNNNHNHTLGMSNEGEEKEMTTALLNIIKMKSSKTNVNNINELNNINELNNINKLNNMSRHNDNNVESNVLNPYNTNSYNVLLKMKSEIEKDEKKIINMIDNNHNNKNNNYNMNNKSSFNNNINNSHNNGSVFEETNHIVKYEKNNNKYEHTNNNISTNTSNFKNKSITLNRNTIHNIIKEILQSDEFIDLLWNKLTANQHFS
Regarding B1, the binding entry in assay [1] is recorded as “binds”.

B2: CELF1 (protein, UniProt Q8IDB7 1-509)
chain: MDDHENIDINDNSSDANTANYNQDKNENTSEVNDYSKEDIEGDENLKSSKGKQENNTKSSSDKDENTIDYGNHDFPCNPAPPVPIKLFIGRVPKNIEEDQLRPIFEEYGIVNEVVIIRDKITNVHKSSAFVKMASISEADNAIRLLNNQKTLDAQLGSLQVKYASGELNKLGFPQNIESGVDQAKLFIGSLPKNITEDNIKEMFSPYGTVEEVFIMKDNSTGLGKGCSFVKFSYKEQALYAIKSLNGKKTLEGCTRPVEVRFAEPKSSKQPQIPLTLQPMQNPPHAMAPQPSISSPNNINFGNNFSVNNNYPRQVGPWKEYYSGEGRPYYYNEQTNTTQWEMPKEFETLFMNNSANMHNLSESSGPPGANLFIFHVPNEWQQTDLIQAFSPFGELLSARIATEKNTGRNRGFAFVSYDSLESAAAAISQMNGFMALNKKLKVTVKKGEEDEMKKYVNQNGVNSFQQVPRVQKAIPAQPASMQPNLAYHQNPQAQNFFYSNSNSYRCGPY
B2: in assay [1], the binding entry is recorded as “binds”.

B3: eIF4E (protein, UniProt O97266 1-227)
chain: MKYLTFNKNNRDAIDLSEKLEATKIDLSNPLLLQYNWVIWEQVSDNKIKQSNNYKDYTRPLAKFNSVQKFWQLWNRLPQPSDLLAQRSMTRFSEDGIFRIVDALMIFRDNIQPMWEDPANSGGGHFEYKILPKDYPYSQIDEFWNNLVLAIIGCSLKHYDLITGIRLVDKLSTTRYGYIRIEIWYTTITDESVKNYLRKDLEEHMCNRIDGSTIFPPRVKSLSHIHR
Regarding B3, the binding entry in assay [1] and in assay [2] was “binds” in each case.

B4: XRN1 homolog (PF3D7_1106300) (enzyme, UniProt A0A143ZZN7 1-733)
chain: MIAFISLWVLCIINVMAYCISLNKYKFIKSYNLYNKRKHQQNVLYGIPRMYKWLTSYYPTVREELINNEKQKSVDIFYIDMNGVIHHCTHANKEKLPIYDEHELFSNILQYLKNLFYLIKPKKLIYIGVDGVSPKAKMNQQRKRRFLSIFKINDNDNTSNLFNPNCITTGTDFMYKINLSLNKWFKILKKKKVFEFDVIFSGSDVAGEGEHKILKYIRENCKRDSNFKNYNHCIYGLDADLIMLSLVTHLNNIFILRDKFKISNDLHNNMLENIERTQNTFNNDEYNSFNEPQNDNINYNEEGENIQLNEKSKTNESLVKEENNVEYENNEEINNEINNEINNEINNEINNEINNEINNEINDEINKEINNGINNGINNGINNEINNEINNEINNGINNEINNSEGMNNILGGYKIPFLPKVHKYTKEYYMKYESLNSNDFEILDIYKLRNSIKTQIATYINKLKKEKNIVFSISRVVDDIVFLSFLVGNDFLPHIPNIDINEGSMNEILNSYIFYIYKYSNYITYKDKVHIERLKIILKILSAQEFEYFKKRGINENISEFTDEQKYKKYYYLHKFGLEDPKEIQNIVKKYIEGLFWNLHYYHFGCASWYWEYPYHYAPLCSDLLSFEKSDFFFEKGKPYSAFTHLISVLPQKDKNLLPDAYKNIYVEDEVKSFFPENVKIDPNGKKETWEYIVHLPFINCNMINKIITEKSKTISKLKYKLRELNGREHRY
Turning to B4, the binding entry in assay [3], in assay [1] and in assay [2] was “no binding” in each case.

B5: PABP2 (protein, UniProt Q8I2R8 1-202)
chain: MEQVNIDQMNAEKAKGDGANFKVQVDDINNIDKEFSDLQKLKMMNEGAEIQMNQGGNVDSHEQEQEEINNRSIFVGNVDYSTQPEELQSLFSECGLINRVTILVNKNTGHSKGYAYIEFADASSVRTALSLSESFFKKRQIKVCSKRRNIPGFNRPKISPFRGRGMKSALGVRGRLRQPSFRPFYRGRGAYKKIVTNPYERT
On to B5, for which, in assay [3], the binding result is “binds”.

B6: CELF2/HoBo (protein, UniProt Q8ILZ7 1-514)
chain: MSYLSNMSNMNNMNNSTQQYNNENSESPYGEARMSEQCSYQMNSPYNPAPSIPIKLFVSSIPKNLTEEDIKSIFQEYGNIQDVVFIKDKKPNVNRSNVFVRMESIFYGQKAIKDLHGKRTLCETLGPLIVKFAIGELEKYGVNMNNANENEAKLFVGSLPKEITEEELRELFNRYGNVTEVYIMKNSNGISKRCAFVNYAYKEQGIFAIQNMNGKIATENAEKPIEVRFAETKNQLQEKHLFNRSLMNPLNNNMNNMDNMNNMDNMENMDNFDNNNNNNNSSYMQSHAFKNMNMDNFNRYSMNMNFNMQNNNNNQRNNNNNNNGNNNNDNNNNNNINNNNSNGNNNNNSSSNNNSPWKQYYSKEEGRPYYHNEITGETQWQKPRKIEQSFINPINMNEITGPVGANIFIFHIPNEWIQTDLLSAFSPFGNIISAHIATERDTGRNRGFAFVSYDNVDSAINAVKYMNGFLAHKKKLKVTIKKGEEQYVQALINQRNKLNSNDARRNFMENTTNA
For B6, the binding result in assay [1] and in assay [2] was “binds” in each case.

The values are drawn from PMC11068891.
